Laboratory results from patent US20130224223A1, “Compositions and Methods for Treating Neurological Disorders” (GEORGIA REGENTS UNIVERSITY, priority 2007, published 2013).
At least one compound was matched to its structure with a doubt left.

What was measured:
Type in all cases: cell-based, mice
[1] = tested on: pyramidal neurons in prefrontal cortical slices; assay: mIPSC recording in pyramidal neurons of prefrontal cortical slices
[2] = tested on: prefrontal cortical slices; assay: eIPSC recording in prefrontal cortical slices; conditions: substance alone, no other exogenous agent; AG1478/AG879 5 mM [sic]
Procedure: Transverse prefrontal cortical slices (0.3 mm) were prepared from P28-P36 mice using a Vibroslice (Leica VT 10005) in the ice-cold solution, which contained 2.5 mM KCl, 1.25 mM NaH2PO4, 10 mM MgSO4, 0.5 mMCaCl2, 26 mM NaHCO3, 10 mM glucose, and 230 mM sucrose. Slices were allowed to recover for at least 2 hr in ACSF (1 hr at 34° C. followed by 1 hr at 22° C.) in a solution containing 126 mM NaCl, 2.5 mM KCl, 1.25 mM NaH2PO4, 2 mM MgSO4, 2 mM CaCl2, 26 mM NaHCO3, and 10 mM glucose. Slices were placed in the recording chamber and superfused (1.5 ml/min) with ACSF at 34° C. All solutions were saturated with 95% O2/5% CO2. Neurons were visualized with an IR-sensitive CCD camera with a 403 water-immersion lens (Zeiss, Axioskop2 Fsplus) and recorded using whole-cell voltage-clamp techniques (MultiClamp 7008 Amplifier, Digidata 1320A analog-to-digital converter) and pClamp 9.2 software (Axon Instruments). Glass pipettes were filled with the solution containing 125 mM Cs-gluconate, 10 mM CsCl, 1 mM MgCl2, 10 mM HEPES, 1 mM EGTA, 0.1 mM CaCl2, 10 mM sodium phosphocreatine, 4 mM Mg-ATP, 0.3 mM GTP, 0.2 mM leupeptin, and 5 mM lidocaine N-ethylchloride (QX314) (pH 7.2, with the osmolarity adjusted to 280 mOsm with sucrose). […]

PFC pyramidal neurons = assay: spontaneous firing of PFC pyramidal neurons, loose-patch recording; conditions: substance alone: 5 nM NRG1, 1 μg/ml ecto-ErbB4, 20 M bicuculline as printed
[3] = tested on: PFC layers II-V pyramidal neurons; assay: evoked action potentials of PFC pyramidal neurons, whole-cell patch-clamping; conditions: substance alone; 20 M bicuculline as printed

## CN1CCc2cc3c(cc2[C@H]1[C@@H]1OC(=O)c2c1ccc1c2OCO1)OCO3 [bicuculline]
[1]
  mIPSCs, blockade: blockable
[2]
  evoked IPSCs (eIPSCs): sensitive
PFC pyramidal neurons
  spontaneous firing rates: increased
[3]
  firing rate of pyramidal neurons, whole-cell patch: increased
